Experimental data: PubChem BioAssay AID686943 (Drosophila RNAi Screening Center, 2013)
The deposit covers about 23,000 reagents; this is an unselected part of those that have a named target and a result. 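Extra replicates exist only for a retested subset of genes; insulin dose and duration not given; both raised and lowered dpERK matter.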 Not all columns of the deposit are shown. No sequences are given here. Not stated in the record: the amount of reagent, the time to read-out.

- Test: 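Search across the genome for regulators of signalling from receptor tyrosine kinase to ERK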 (primary screen)
- Cell system: Drosophila S2R+ haemocyte-like cells expressing YFP-tagged ERK (Rolled)
- Reagent: long dsRNA against Drosophila genes
- Treatment: insulin stimulation versus unstimulated cells; dose and duration not given
- Measured: 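Per-plate z-scores of phospho-ERK immunostaining normalised to YFP-tagged ERK, measured with and without insulin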
- Reading the numbers: replicate 1, z-score of dpERK with insulin: higher = more active ERK per ERK-YFP after insulin

For Myc (GeneID 31310) [DRSC18762], what was measured?
replicate 1, z-score of dpERK with insulin: 0

With CG3223 (GeneID 40947) [DRSC15468], how do the results read?
replicate 1, z-score of dpERK with insulin: -0.99

How did the screen score CG3655 (GeneID 31056) [DRSC17676]?
replicate 1, z-score of dpERK with insulin: 0.51

With CG3655 (GeneID 31056) [DRSC18181], what does the deposit list?
replicate 1, z-score of dpERK with insulin: 0.77

What did the screen give for CG3655 (GeneID 31056) [DRSC18477]?
replicate 1, z-score of dpERK with insulin: -0.1

How did the screen score CG3655 (GeneID 31056) [DRSC22688]?
replicate 1, z-score of dpERK with insulin: -3.89

Which result is listed for CG3368 (GeneID 43292) [DRSC15485]?
replicate 1, z-score of dpERK with insulin: -0.16

How did the screen score Cht12 (GeneID 246535) [DRSC03844]?
replicate 1, z-score of dpERK with insulin: -0.11

How did the screen score mge (GeneID 38459) [DRSC08721]?
replicate 1, z-score of dpERK with insulin: 0.31

For CG6565 (GeneID 34749) [DRSC02970], what does the deposit list?
replicate 1, z-score of dpERK with insulin: -0.16

For CG34426 (GeneID 5740622) [DRSC09977], how do the results read?
replicate 1, z-score of dpERK with insulin: 1.22

With Dd (GeneID 33107) [DRSC20539], how do the results read?
replicate 1, z-score of dpERK with insulin: -0.47

With Jarid2 (GeneID 39103) [DRSC10372], how do the results read?
replicate 1, z-score of dpERK with insulin: -0.23

What did the screen give for CG30161 (GeneID 37945) [DRSC22141]?
replicate 1, z-score of dpERK with insulin: 3.14

What is on record for CG15429 (GeneID 33637) [DRSC00444]?
replicate 1, z-score of dpERK with insulin: 1.01

What did the screen give for CG4287 (GeneID 41939) [DRSC15559]?
replicate 1, z-score of dpERK with insulin: 0.11

What is on record for CG13116 (GeneID 34288) [DRSC02214]?
replicate 1, z-score of dpERK with insulin: 0.94

With CG13116 (GeneID 34288) [DRSC21945], what does the deposit list?
replicate 1, z-score of dpERK with insulin: -0.64

With DopEcR (GeneID 38539) [DRSC08529], what was measured?
replicate 1, z-score of dpERK with insulin: -0.28

What is on record for Agps (GeneID 36669) [DRSC05984]?
replicate 1, z-score of dpERK with insulin: -0.59

With eIF5B (GeneID 44261) [DRSC08429], what was measured?
replicate 1, z-score of dpERK with insulin: -0.07

With eIF5B (GeneID 44261) [DRSC08710], what does the deposit list?
replicate 1, z-score of dpERK with insulin: 1.79

Which result is listed for Esp (GeneID 42962) [DRSC16664]?
replicate 1, z-score of dpERK with insulin: 0.6

How did the screen score Rpe (GeneID 35692) [DRSC06407]?
replicate 1, z-score of dpERK with insulin: 0.36

For slgA (GeneID 33117) [DRSC20586], what was measured?
replicate 1, z-score of dpERK with insulin: -0.18

With mRpL40 (GeneID 41364) [DRSC15749], what was measured?
replicate 1, z-score of dpERK with insulin: 0.38

How did the screen score CG14435 (GeneID 31628) [DRSC17928]?
replicate 1, z-score of dpERK with insulin: -0.94

For CG42784 (GeneID 326165) [DRSC02534], what was measured?
replicate 1, z-score of dpERK with insulin: -0.21

With CG42784 (GeneID 326165) [DRSC02535], what does the deposit list?
replicate 1, z-score of dpERK with insulin: -1.15

Which result is listed for CG42784 (GeneID 326165) [DRSC22272]?
replicate 1, z-score of dpERK with insulin: 3.15

What is on record for CG42784 (GeneID 326165) [DRSC22804]?
replicate 1, z-score of dpERK with insulin: -0.18

Look-ups from the list:
Under “replicate 1, z-score of dpERK with insulin”, CG3368 (GeneID 43292) [DRSC15485] reads -0.16
Agps (GeneID 36669) [DRSC05984], replicate 1, z-score of dpERK with insulin → -0.59
Under “replicate 1, z-score of dpERK with insulin”, CG3655 (GeneID 31056) [DRSC22688] shows -3.89
